# Laboratory results published in PubChem BioAssay AID2685 (National Center for Advancing Translational Sciences (NCATS), 2010).
# Values joined by “and” are separate entries in the source; they are usually repeats but may differ in a detail not shown here. Equal entries are not always repeated. The list shows a part of the results. The main result of the screen is listed elsewhere. These columns were measured beside it and carry no call. Compounds called inactive in the main read-out are mostly missing here. The note in brackets gives the kind of curve behind each potency; many fits are weak.
# Experiment: qHTS Assay for Lipid Storage Modulators in Drosophila S3 Cells;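 for cell number change: cells counted by Cell Tracker Red CMTPX staining in the red channel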
# Conditions: BODIPY lipid droplet fluorescence, 18-24 h; for cell number change: measured here: cell count max response, cells fed with added oleic acid
# How it was run: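 Drosophila S3 cells got compounds at several concentrations plus oleic acid (400 uM solution). Laser-scanning cytometry with 488 nm excitation read lipid droplets at 500-530 nm and cells at 575-640 nm. Percent activity was relative to 20 uM Triacsin C.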
# [1] = measured here: lipid fluorescence (Fed channel) AC50, cells fed with added oleic acid
# [2] = measured here: cell number channel AC50, cells fed with added oleic acid
Compound,cell number change,AC50 [1],AC50 [2]
CN(C)S(=O)(=O)c1cc(NC(=O)CNCCN2CCOCC2)ccc1Cl,5.55%,,
CCOC(=O)CSc1nnc(-c2ccc(OC)cc2)n1CC,-9.53%,,
Cn1ncc(Cl)c1C(=O)N1CCN(c2ccc(F)cc2)CC1,-10.5%,"32.6 µM [rising, single point]",
Cc1ccc(CSC2=NCCN2C(=O)c2ccc([N+](=O)[O-])cc2)cc1,,"4.11 µM [falling, partial curve]","6.51 µM [falling, single point]"
CCN(CC)S(=O)(=O)c1cccc(-c2nnc(SCc3ncc(-c4ccccc4)o3)n2C)c1,-0.486%,"4.61 µM [falling, full curve, poor fit]",
Cc1cccc(-n2ccnc2SCC(=O)Nc2cc(C)on2)c1,,,"6.51 µM [rising, partial curve, poor fit]"
Cn1c(N)c(C(=O)CCl)c(=O)n(C)c1=O,44.8%,,
Cn1c(CNC(=O)c2ccc3c(c2)OCO3)nnc1SCC(=O)Nc1ccc(F)cc1,13.2%,"0.461 µM [falling, single point]",
CCCCn1c(N)c(N(CC(C)C)C(=O)COC(=O)Cc2c(C)nc3ccccc3c2C)c(=O)[nH]c1=O,,"29.1 µM [rising, single point]",
CC(C)CSc1nc2ccccc2n1CC(N)=O,-24.8%,"25.9 µM [rising, single point]","3.66 µM [falling, full curve, poor fit]"
COc1ccc(OC)c(-c2csc(NC(=O)CSCc3c(C)noc3C)n2)c1,-19.4%,"2.91 µM [rising, partial curve]",
COc1ccc(C(=O)COC(=O)CNC(=O)c2cccs2)cc1Br,13%,,
O=C(CSc1nnnn1-c1ccccc1)Nc1ccc(N2CCOCC2)c(Cl)c1,117%,,"25.9 µM [rising, partial curve]"
N#CC1=C(N)Oc2ccc3ccc(O)cc3c2C1c1ccsc1 (stereo unspecified),6.33%,"0.116 µM [rising, full curve, poor fit]",
COc1cc(/C=N/NC(=O)C(=O)NCC2CCCO2)cc(Cl)c1O (stereo unspecified),,,"0.92 µM [falling, partial curve]"
CCOc1ccc(/C=N/n2c(-c3ccccc3)n[nH]c2=S)cc1,16.2%,"0.116 µM [rising, full curve, poor fit]",
COc1cc2cc(CCOC(=O)c3ccc(C(F)(F)F)cc3)oc(=O)c2cc1OC,5.37%,"0.116 µM [falling, single point]",
COc1cc2c(cc1OC)C(c1cc3cc(OC)c(OC)cc3[nH]c1=O)N(C(=O)C1CC1)CC2 (stereo unspecified),11.9%,"29.1 µM [falling, single point]",
CCc1cc2c(nc1CC)CCN(CC/C(C)=N/O[C@@H](C)c1cc(-c3c(C)cc(C)cc3C)no1)C2,-47.5%,"14.6 µM [falling, single point]","23.1 µM [falling, single point]"
O=C1C(Cl)=C(N2CCCCCC2)C(=O)N1c1ccccc1Cl,-22.2%,,
CC(=O)Nc1nc(C)c(-c2csc(Nc3ccccn3)n2)s1,-12.9% and -20%,"11.6 µM [falling, single point]","1.46 µM [falling, partial curve, poor fit]"

Compound,cell number change,AC50 [1],AC50 [2]
CCCCn1c(N)c(N(CCOC)C(=O)Cn2c(=O)oc3ccccc32)c(=O)[nH]c1=O,-22.9%,,
O=S(=O)(c1ccc2c(c1)OCCO2)N1CCN(Cc2ccccc2)CC1,23.7%,"0.651 µM [falling, single point]",
Cc1cc(C(=O)COC(=O)c2cccc(O)c2)c(C)n1C1CC1,-17.4%,,
O=C1c2ccccc2C(=O)N1CCCc1nc2ccccc2c(=O)n1-c1cccnc1,-21.6%,,
Nn1c(Cc2cccc3ccccc23)nnc1SCc1ccccc1Cl,,,"0.0116 µM [rising, full curve, poor fit]"
CCOC(=O)N1CCN(C(=O)C(=O)Nc2sc3c(c2C(N)=O)CC(C)(C)OC3)CC1,3.3%,"29.1 µM [rising, single point]",
O=C(/C=C/c1cccc([N+](=O)[O-])c1)NCc1ccc2c(c1)OCO2,22.5%,"1.64 µM [rising, partial curve]",
COc1ccc(OCCCC(=O)OCC(=O)NNC(=O)c2ccc([N+](=O)[O-])cc2)cc1,,"4.61 µM [falling, single point]",
COc1cc2cc(C)nc(Cc3cccc4ccccc34)c2cc1OC,,"0.116 µM [rising, full curve, poor fit]","0.231 µM [rising, partial curve]"
COc1ccccc1CCNC(=O)c1nc(-c2cccs2)no1,,,"0.00461 µM [falling, full curve, poor fit]"
COc1ccc(S(=O)(=O)N2CCCCC2)cc1NC(=O)CN(C)C1CCCCC1,-29%,,"0.164 µM [falling, full curve, poor fit]"
CCCCNC(=O)C1CCC(CNS(=O)(=O)c2c(C)cc(C)cc2C)CC1 (stereo unspecified),95.7%,,"29.1 µM [rising, single point]"
COc1ccc(C(=O)Nc2cccc(NC(=O)c3cccs3)c2)cc1OC,-1.92%,"29.1 µM [falling, single point]","0.0366 µM [rising, single point]"
COc1ccc(/C=C/C(=O)c2ccc([N+](=O)[O-])o2)cc1OC,-60.2%,"6.51 µM [falling, partial curve]","20.6 µM [falling, partial curve]"
Cc1ccnc(NC(=O)CCNS(=O)(=O)c2ccc(C)c(C)c2)c1,35.2%,,"4.61 µM [rising, full curve, poor fit]"
CN(CC(=O)N1CCOCC1)S(=O)(=O)c1cc(Cl)ccc1Cl,3.81%,"6.51 µM [rising, single point]",
CN1CCN(c2ccc(Cl)cc2NC(=O)CC2OC(=O)c3ccccc32)CC1 (stereo unspecified),-4.41%,,
CC(C)C(=O)Nc1ccc(Nc2ccccc2)cc1,-18.5%,"0.731 µM [falling, full curve]","0.651 µM [falling, full curve]"
Cc1onc(-c2ccccc2)c1C(=O)N/N=C/c1cn(C)c2ccccc12,-15%,,"0.116 µM [falling, partial curve, poor fit]"
O=c1c2c(-c3ccccc3)csc2ncn1/N=C/c1ccc(O)c([N+](=O)[O-])c1,-1.52%,"0.13 µM [falling, partial curve, poor fit]",
CCC(C)NC(=O)COC(=O)c1cccnc1Nc1ccccc1F (stereo unspecified),-39%,"1.16 µM [rising, full curve]","0.231 µM [falling, full curve, poor fit]"

# Single records, from the list above:
# Nn1c(Cc2cccc3ccccc23)nnc1SCc1ccccc1Cl in the list: AC50 [2]: 0.0116 µM [rising, full curve, poor fit]
# CCc1cc2c(nc1CC)CCN(CC/C(C)=N/O[C@@H](C)c1cc(-c3c(C)cc(C)cc3C)no1)C2 in the list: cell number change: -47.5%; AC50 [1]: 14.6 µM [falling, single point]; AC50 [2]: 23.1 µM [falling, single point]

# Additional compounds:

Compound,cell number change,AC50 [1],AC50 [2]
O=C(NCc1ccncc1)C(=O)NCC1OCCCN1S(=O)(=O)c1cc(F)ccc1F (stereo unspecified),16.1%,,
Cc1ccc(NC(=O)COC(=O)C2COc3ccccc3O2)cc1 (stereo unspecified),13.4%,"6.51 µM [rising, single point]",
COc1ccc(OC)c(C(=O)/C=C/c2cccnc2)c1,-3.75%,"2.31 µM [falling, partial curve, poor fit]",
COc1ccc(C(=O)NCC(=O)OCC(=O)NC(=O)NC2CCCCC2)cc1OC,7.64%,"7.31 µM [falling, partial curve]",
CCOC(=O)c1oc2ccccc2c1NC(=O)c1ccc(S(=O)(=O)N(C)C)cc1,9.2%,,
COc1cc(NC(=O)C2C3CCC(O3)C2C(=O)O)cc(OC)c1 (stereo unspecified),7.02%,"6.51 µM [rising, single point]",
CCN(CC)c1ccc(S(=O)(=O)N2CCCCC2)cc1NC(=O)C1CCC1,-4.36%,,
O=C(Nc1ccc2nn(-c3ccccc3)nc2c1)c1ccc2c(c1)OCO2,,"0.103 µM [rising, full curve, poor fit]","0.517 µM [rising, partial curve, poor fit]"
CN(CC(=O)Nc1cc(S(=O)(=O)N2CCCC2)ccc1Cl)Cc1ccc2c(c1)OCO2,-13.2%,,
CCCCNC(=O)c1sc(=S)n2c1[nH]c(=O)c1ccc(C(=O)NCCc3ccc(OC)c(OC)c3)cc12,-29.8%,,"4.11 µM [falling, full curve, poor fit]"
CN(CC(=O)O)Cc1nc2ccccc2[nH]1,-16.4%,,
CNCC(O)c1ccc(O)c(O)c1 (stereo unspecified),21.8%,"32.6 µM [rising, single point]",
CCCCNC(=O)CNC(=S)N(Cc1ccccc1F)C1CCCCC1,-31.9%,"23.1 µM [falling, single point]","20.6 µM [falling, single point]"
COc1ccc(S(=O)(=O)N2CCOCC2)cc1NC(=O)c1cccs1,14.3%,"14.6 µM [rising, partial curve]",
CCOc1ccc(OCC(=O)N2CCC3(CC2)CC(=O)c2ccccc2O3)cc1,-13.5%,,"2.31 µM [falling, single point]"
O=C1NC(c2cc(Cl)cc([N+](=O)[O-])c2O)Nc2ccccc21 (stereo unspecified),8.59%,"0.092 µM [falling, full curve]","0.116 µM [falling, full curve]"
CCOCCCNC(=O)c1ccc(NC(=O)C2=CSCCO2)cc1,-19.6%,,
O=C(c1ccc(Cl)c(S(=O)(=O)N2CCOCC2)c1)N(c1ccccn1)C1CCCCC1,-1.8%,,
COC(=O)C1=C(C)N=c2s/c(=C/c3cccs3)c(=O)n2C1c1ccc(F)cc1 (stereo unspecified),-19.9%,"0.58 µM [falling, full curve]",
COc1ccc(S(=O)(=O)Nc2ccc(S(=O)(=O)N3CCCCC3)cc2)cc1C,-19.7%,"2.59 µM [rising, partial curve]",
